This is an account of results in the supplement of paper PMC12009310.

In test [1] the test system is mIMCD3. The test can be described thus: robust z score of cell number vs plate controls; higher = more cells (less cytotoxic). The conditions noted are these: 10 µM, 48 h.
For test [2], the system named is mIMCD3. The test can be described thus: robust z score of cilia incidence (% cells with single cilium) vs plate controls; higher = more ciliated cells. The conditions noted are these: 10 µM; 48 h; siRNA: siScr.
For test [3], the system named is mIMCD3. As to the kind of experiment: robust z score of cilia incidence (% cells with single cilium) vs plate controls; higher = more ciliated cells (rescue of cilia loss). To be noted: 10 µM; 48 h; siRNA: siRpgrip1l.

Values joined by “and” are separate entries in the source; they are usually repeats but may differ in a detail not shown here. Equal entries are not always repeated. Structures can show the parent of a compound that is named as a salt. ± gives the standard deviation of the averaged measurements. The list shows a part of the results. Part of the spread comes from offsets between plates or batches.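 The cells are a mouse kidney inner medullary collecting duct line, silenced either for the ciliary gene Rpgrip1l or with a non-targeting control siRNA.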

Consider `Cc1scc2c1N(C(=O)CN1CCN(C)CC1)c1ccccc1NC2=O` [Telenzepine dihydrochloride], for which the “robust z score of cell number” value in test [1] (siRNA: siRpgrip1l) is -5.5 ± 1.3; in test [1] (siRNA: siScr), 1.32 ± 0.5. In addition, the “robust z score of cilia incidence” value was 1.13 ± 2.4 in test [2] and -13.15 ± 0.038 in test [3].
Take `Nc1ncnc2c1ncn2C1CCCO1` (stereo not given): the “robust z score of cell number” value was -27.6 ± 29 in test [1] (siRNA: siRpgrip1l) and -0.833 ± 3.2 in test [1] (siRNA: siScr). Also, the “robust z score of cilia incidence” value in test [2] is -1.27 ± 1.3; in test [3] it was -195 ± 140.
Regarding `CC(C)n1nnc2cc(C(=O)O)ccc21`, the “robust z score of cell number” value is -1.07 ± 0.9 in test [1] (siRNA: siRpgrip1l) and -4.34 ± 5.2 in test [1] (siRNA: siScr). Moreover, the figures for the “robust z score of cilia incidence” value in test [2] and in test [3] were -1.31 ± 5.2 and -8.42 ± 4.3, respectively.
Taken in the same sequence, the figures for `CCCn1c(=O)[nH]c2nc(-c3ccc(S(=O)(=O)O)cc3)[nH]c2c1=O` were -4.04 ± 2.8, -3 ± 0.6, 1.06 ± 2.4 and -13.6 ± 2.6.
Taken in the same sequence, the figures for `COC(=O)C1=C(C)NC(C)=C(C(=O)OCCCN2CCC(c3ccccc3)(c3ccccc3)CC2)[C@H]1c1cccc([N+](=O)[O-])c1` [(S)-(+)-Niguldipine hydrochloride] were -56.8 ± 46, -22.8 ± 5, -24 ± 2.9 and -39.2 ± 7.1.
Taken in the same sequence, the figures for `CCSC(=N)N` [EIT hydrobromide] were 1.17 ± 5, -1.79 ± 2.5, 0.757 ± 4.7 and -9.91 ± 7.9.
As for `O=C1C(=O)N(Cc2ccc(Cl)c(Cl)c2)c2ccccc21` [Apoptosis Activator 2], the “robust z score of cell number” value was -37.8 ± 24 in test [1] (siRNA: siRpgrip1l) and -52.4 ± 29 in test [1] (siRNA: siScr). Besides, the “robust z score of cilia incidence” value was -29 ± 12 in test [2] and -51.7 ± 9.6 in test [3].
For `CSc1ccc2c(c1)C(N1CCN(C)CC1)Cc1ccccc1S2` (stereo not given) [Methiothepin maleate] the same measures were -121 ± 86, -161 ± 140, -16 ± 0.79 and -61.7 ± 10.
As to `COc1ccccc1N1CCN(CC(O)COc2cccc3ccccc23)CC1` (stereo not given) [Naftopidil hydrochloride], the “robust z score of cell number” value in test [1] (siRNA: siRpgrip1l) is -11.1 ± 11; in test [1] (siRNA: siScr), -32 ± 39. Besides, the “robust z score of cilia incidence” value in test [2] is -0.533 ± 1.8; in test [3] it was -10.3 ± 3.6.
For `CC#C[C@]1(O)CC[C@H]2[C@@H]3CCC4=CC(=O)CCC4=C3[C@@H](c3ccc(N(C)C)cc3)C[C@@]21C` [Mifepristone] the same measures were -135 ± 140, -33.5 ± 8, -21.9 ± 7.3 and -417 ± 290.
For `O=S(=O)(c1ccccc1)N(CC(F)(F)F)c1ccc(C(O)(C(F)(F)F)C(F)(F)F)cc1` the same measures were -29.6 ± 15, -27.3 ± 4.7, -52 ± 38 and -32.7 ± 19.
With `CCCCCCN(CCCCCC)C(=O)Cc1c(-c2ccc(F)cc2)[nH]c2ccccc12`, the results for the “robust z score of cell number” value in test [1] (siRNA: siRpgrip1l) and in test [1] (siRNA: siScr) were -94.4 ± 74 and -119 ± 100, respectively. Further, the “robust z score of cilia incidence” value in test [2] was -9.57 ± 1.5; in test [3] it was -29.4 ± 4.8.
`Cc1cc(Cn2cnc3c2CC(C(=O)O)N(C(=O)C(c2ccccc2)c2ccccc2)C3)ccc1N(C)C` (stereo not given): the “robust z score of cell number” value in test [1] (siRNA: siRpgrip1l) is -62.9 ± 70; in test [1] (siRNA: siScr) it was -2.5 ± 0.44. The “robust z score of cilia incidence” value in test [2] is -0.38 ± 6.8; in test [3], -5.69 ± 0.27.
For `O=C(O)c1ccccc1Nc1cccc(OCc2ccc3ccccc3n2)c1` [SR 2640 hydrochloride] the same measures were -44.7 ± 41, -44.7 ± 29, -120 ± 81 and -91.6 ± 70.
For `CC1(c2ccccc2)OC(C(=O)O)=CC1=O` (stereo not given) [Acifran] the same measures were -2 ± 5.3, 1.7 ± 1.4, -1.85 ± 1.5 and -18.4 ± 12.
`CCS(=O)(=O)N(C)[C@H]1c2cc(C#N)ccc2OC(C)(C)[C@@H]1O` [(-)-[3R,4S]-Chromanol 293B]: the “robust z score of cell number” value in test [1] (siRNA: siRpgrip1l) was -49.7 ± 68; in test [1] (siRNA: siScr), -11.7 ± 20. In addition, the “robust z score of cilia incidence” value is -0.73 ± 1.1 in test [2] and -8.76 ± 8.8 in test [3].
Regarding `C[S+]([O-])c1ccc(-c2nc(-c3ccc(F)cc3)c(-c3ccncc3)[nH]2)cc1` (stereo not given), the “robust z score of cell number” value in test [1] (siRNA: siScr) is -8.4 and -7.23. In addition, the “robust z score of cilia incidence” value in test [3] was -22 and -9.8.
For `S=C(S)N1CCCC1` [Pyrrolidinedithiocarbamate ammonium], the “robust z score of cell number” value in test [1] (siRNA: siRpgrip1l) was -13.9 ± 4.6; in test [1] (siRNA: siScr), -15 ± 2.7. Also, the “robust z score of cilia incidence” value in test [2] was -5.47 ± 0.67; in test [3] it was -7.59 ± 0.46.
